Results are given in words; binding and its absence hold for the method and conditions named. For some assays here: In cells and extracts the contact can be indirect. Some entries that bind do so weakly or less than the wild type. Each block holds one substance with its values, some of them ahead of it.
How the values were obtained:
[1] = molecular target: full-length IRE1α-green fluorescent protein (GFP) (UniProt O75460); experiment: MST
[2] = molecular target: endogenous IRE1α (human (endogenous in Flp-In-T-REx 293)) (UniProt O75460); experiment: proximity ligation
[3] = molecular target: BiP BiFC construct (pEZY BiFC Grp78-NV(CV)) (UniProt P11021); experiment: split reporter
[4] = molecular target: ATF6 BiFC (Venus) construct (UniProt P18850); experiment: split reporter
[5] = molecular target: IRE1α BiFC construct (pEZY BiFC IRE1a-NV(CV)) (UniProt O75460); experiment: split reporter

Chains of the proteins cited; added tags and fusions are not shown. Residues count along the entry.
UniProt O75460, residues 19-977: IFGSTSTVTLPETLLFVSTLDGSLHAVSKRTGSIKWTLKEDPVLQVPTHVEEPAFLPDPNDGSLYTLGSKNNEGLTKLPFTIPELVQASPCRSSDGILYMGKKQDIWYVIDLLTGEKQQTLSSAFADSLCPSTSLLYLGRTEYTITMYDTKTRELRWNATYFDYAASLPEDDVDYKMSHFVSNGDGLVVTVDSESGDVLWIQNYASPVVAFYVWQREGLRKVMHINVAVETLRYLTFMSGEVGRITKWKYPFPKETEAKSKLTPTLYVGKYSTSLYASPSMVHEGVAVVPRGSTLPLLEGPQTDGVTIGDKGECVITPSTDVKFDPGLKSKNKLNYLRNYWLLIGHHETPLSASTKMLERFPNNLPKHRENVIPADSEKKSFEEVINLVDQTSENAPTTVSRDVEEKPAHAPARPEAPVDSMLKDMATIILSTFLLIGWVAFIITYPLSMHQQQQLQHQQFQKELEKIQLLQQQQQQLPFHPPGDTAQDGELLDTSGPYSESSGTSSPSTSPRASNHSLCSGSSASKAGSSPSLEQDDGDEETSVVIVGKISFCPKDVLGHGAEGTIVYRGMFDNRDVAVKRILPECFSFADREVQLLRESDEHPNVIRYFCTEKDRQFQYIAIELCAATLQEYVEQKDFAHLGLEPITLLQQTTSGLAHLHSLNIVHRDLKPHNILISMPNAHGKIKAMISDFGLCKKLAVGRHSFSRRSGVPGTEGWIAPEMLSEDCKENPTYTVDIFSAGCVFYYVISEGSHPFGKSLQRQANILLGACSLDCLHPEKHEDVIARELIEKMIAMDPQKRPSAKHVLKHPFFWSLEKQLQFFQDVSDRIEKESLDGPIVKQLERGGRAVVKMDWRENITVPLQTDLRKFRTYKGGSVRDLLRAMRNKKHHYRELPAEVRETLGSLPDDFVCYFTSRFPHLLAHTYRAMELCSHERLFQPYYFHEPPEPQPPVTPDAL
UniProt P11021, residues 19-654: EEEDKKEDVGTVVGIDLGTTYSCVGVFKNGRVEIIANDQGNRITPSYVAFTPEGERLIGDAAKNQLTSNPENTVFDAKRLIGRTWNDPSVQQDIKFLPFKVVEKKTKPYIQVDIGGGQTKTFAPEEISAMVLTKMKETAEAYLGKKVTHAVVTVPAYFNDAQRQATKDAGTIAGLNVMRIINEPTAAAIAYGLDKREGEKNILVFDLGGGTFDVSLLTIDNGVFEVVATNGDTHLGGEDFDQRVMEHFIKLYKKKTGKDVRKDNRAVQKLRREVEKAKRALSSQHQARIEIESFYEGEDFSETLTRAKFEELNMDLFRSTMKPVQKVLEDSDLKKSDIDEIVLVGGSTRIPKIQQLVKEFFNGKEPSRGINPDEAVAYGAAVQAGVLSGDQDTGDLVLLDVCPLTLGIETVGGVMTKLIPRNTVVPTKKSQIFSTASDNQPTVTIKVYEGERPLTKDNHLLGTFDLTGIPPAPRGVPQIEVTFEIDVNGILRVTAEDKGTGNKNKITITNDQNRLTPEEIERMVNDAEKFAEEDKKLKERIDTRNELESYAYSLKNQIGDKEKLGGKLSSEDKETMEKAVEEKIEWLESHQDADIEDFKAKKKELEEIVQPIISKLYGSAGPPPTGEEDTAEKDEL
UniProt P18850: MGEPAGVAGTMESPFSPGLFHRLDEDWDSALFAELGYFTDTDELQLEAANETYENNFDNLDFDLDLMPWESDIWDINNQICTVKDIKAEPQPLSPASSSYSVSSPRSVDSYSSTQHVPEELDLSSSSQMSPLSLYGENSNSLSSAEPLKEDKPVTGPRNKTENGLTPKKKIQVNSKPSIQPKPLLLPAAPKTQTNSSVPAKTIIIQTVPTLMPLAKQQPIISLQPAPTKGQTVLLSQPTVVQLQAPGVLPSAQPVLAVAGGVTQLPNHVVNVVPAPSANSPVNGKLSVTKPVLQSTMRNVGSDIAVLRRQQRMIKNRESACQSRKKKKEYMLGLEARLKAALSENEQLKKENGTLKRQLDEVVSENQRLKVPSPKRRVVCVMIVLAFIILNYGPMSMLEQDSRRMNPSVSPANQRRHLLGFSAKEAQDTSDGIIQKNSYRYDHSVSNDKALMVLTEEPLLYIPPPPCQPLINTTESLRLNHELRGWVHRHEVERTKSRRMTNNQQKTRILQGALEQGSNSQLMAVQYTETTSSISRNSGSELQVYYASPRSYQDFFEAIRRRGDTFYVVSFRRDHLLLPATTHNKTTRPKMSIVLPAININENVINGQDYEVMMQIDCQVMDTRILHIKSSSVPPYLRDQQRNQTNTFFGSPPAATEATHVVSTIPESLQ
UniProt Q49AH0, residues 25-187: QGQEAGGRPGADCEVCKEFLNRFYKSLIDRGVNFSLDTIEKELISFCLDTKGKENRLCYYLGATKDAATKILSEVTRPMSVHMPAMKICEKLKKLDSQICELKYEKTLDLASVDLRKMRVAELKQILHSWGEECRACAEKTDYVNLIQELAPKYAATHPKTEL

binding [1]: binds
Substance: cerebral dopamine neurotrophic factor (CDNF), recombinant human protein (from UniProt Q49AH0 25-187)

Substance: CDNF-hemagglutinin (HA) (from UniProt Q49AH0 25-187)
binding [2]: binds

binding [3]: binds
binding [4]: binds
binding [5]: binds
Substance: CDNF BiFC construct (pEZY BiFC pre-CDNF-NV(CV)) (from UniProt Q49AH0 25-187)

Reference: publication doi:10.1101/2024.12.17.628889
